For assay [1], the target named is N-terminal luciferase fused with IRS-1 (NLUC-IRS-1) (UniProt P35569). Briefly: split reporter; cell-based BiLC: stable HEK 293 cells incubated with MID chemicals for 24 h, then lysed; luminescence read with Steady-Glow Luciferase assay kit.
Assay [2] shares this target. Briefly: split reporter; lysate-based bimolecular luminescence complementation (BiLC): lysates of the stable HEK 293 line incubated with MID chemicals for 1 h; luminescence read with Steady-Glow Luciferase assay kit.
Assay [3] addresses Flag-IRS-1 (UniProt P35569). Briefly: co-IP; as a3, but cells treated with MID-00935 (10 μM) for 12 h; wild-type HA-MG53 in the presence of MG132 (2.5 μM).
The target of assay [4] is Flag-IRS-1 (UniProt P35569). Briefly: co-IP; reciprocal co-immunoprecipitation from transfected HEK 293 cells without MID-00935; IP lysis buffer (20 mM Tris-HCl pH 7.5, 150 mM NaCl, 1% Nonidet P-40, 5% glycerol, 1 mM EDTA), 500 μg protein, antibody 24 h at 4°C; wild-type HA-MG53 in the presence of MG132 (2.5 μM).

Amino acid sequences for entries named in this document (tags omitted).
UniProt P35569: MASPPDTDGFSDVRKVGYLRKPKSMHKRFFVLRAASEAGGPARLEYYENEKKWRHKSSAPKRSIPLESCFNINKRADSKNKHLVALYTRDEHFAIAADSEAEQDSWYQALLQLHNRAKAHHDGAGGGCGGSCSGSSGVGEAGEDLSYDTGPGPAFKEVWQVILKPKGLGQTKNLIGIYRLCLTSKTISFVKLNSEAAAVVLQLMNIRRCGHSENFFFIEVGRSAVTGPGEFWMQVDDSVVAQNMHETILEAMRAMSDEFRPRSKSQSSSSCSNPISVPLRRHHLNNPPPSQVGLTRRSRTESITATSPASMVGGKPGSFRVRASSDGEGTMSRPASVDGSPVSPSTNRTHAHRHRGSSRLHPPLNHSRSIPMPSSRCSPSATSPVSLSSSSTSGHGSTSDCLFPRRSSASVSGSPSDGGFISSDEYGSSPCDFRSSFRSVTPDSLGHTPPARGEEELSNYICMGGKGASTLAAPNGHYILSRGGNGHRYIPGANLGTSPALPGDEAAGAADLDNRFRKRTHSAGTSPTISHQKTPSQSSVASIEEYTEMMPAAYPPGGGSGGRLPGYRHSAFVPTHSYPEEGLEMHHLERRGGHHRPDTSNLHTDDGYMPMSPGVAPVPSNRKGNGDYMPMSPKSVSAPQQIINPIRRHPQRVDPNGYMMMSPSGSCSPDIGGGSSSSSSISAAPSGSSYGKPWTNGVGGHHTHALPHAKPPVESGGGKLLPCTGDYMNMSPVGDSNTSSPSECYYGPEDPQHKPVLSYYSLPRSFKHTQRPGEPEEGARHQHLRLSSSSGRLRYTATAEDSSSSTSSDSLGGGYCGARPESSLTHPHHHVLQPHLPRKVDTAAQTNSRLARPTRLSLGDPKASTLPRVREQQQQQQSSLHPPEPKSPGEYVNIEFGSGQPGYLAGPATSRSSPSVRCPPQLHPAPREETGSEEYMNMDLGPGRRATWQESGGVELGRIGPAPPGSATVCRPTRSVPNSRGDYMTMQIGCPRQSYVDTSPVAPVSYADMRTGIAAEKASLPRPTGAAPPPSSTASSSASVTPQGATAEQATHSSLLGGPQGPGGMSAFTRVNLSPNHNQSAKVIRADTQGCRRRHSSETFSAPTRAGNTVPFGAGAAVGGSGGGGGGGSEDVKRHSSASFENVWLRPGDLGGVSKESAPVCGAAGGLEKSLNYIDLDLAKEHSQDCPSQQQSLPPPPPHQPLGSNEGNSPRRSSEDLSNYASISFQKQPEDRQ

Substitutions are numbered along the chain they refer to. Names may count otherwise. These are yes or no findings as the source states them, for the method shown. In cells and extracts the contact can be indirect. Some entries that bind do so weakly or less than the wild type. Where a sequence is shown, tags or fusion partners need not be part of it.

B1: C-terminal luciferase fused with MG53 C14A (CLUC-C14A) (enzyme, UniProt Q1XH17 1-477)
chain: MSAAPGLLRQELSAPLCLQLFDAPVTAECGHSFCRACLIRVAGEPAADGTVACPCCQAPTRPQALSTNLQLSRLVEGLAQVPQGHCEEHLDPLSIYCEQDRTLVCGVCASLGSHRGHRLLPAAEAQARLKTQLPQQKMQLQEACMRKEKTVAVLEHQLVEVEETVRQFRGAVGEQLGKMRMFLAALESSLDREAERVRGDAGVALRRELSSLNSYLEQLRQMEKVLEEVADKPQTEFLMKFCLVTSRLQKILSESPPPARLDIQLPVISDDFKFQVWKKMFRALMPALEELTFDPSSAHPSLVVSSSGRRVECSDQKAPPAGEDTRQFDKAVAVVAQQLLSQGEHYWEVEVGDKPRWALGVMAADASRRGRLHAVPSQGLWLLGLRDGKILEAHVEAKEPRALRTPERPPARIGLYLSFADGVLAFYDASNPDVLTPIFSFHERLPGPVYPIFDVCWHDKGKNAQPLLLVGPEQEQA
Turning to B1, the binding entry in assay [1] and in assay [2] was “binds” in each case.

B2: HA-MG53 (enzyme, UniProt Q1XH17 1-477)
chain: B1 chain with A14C
On to B2, for which the binding entry is on record as “no binding (condition: with MID-00935 (10 μM))” with Flag-IRS-1 [3] and “binds” with Flag-IRS-1 [4].

B3: HA-MG53 C14A (enzyme, UniProt Q1XH17 1-477)
chain: B1 chain
In the case of B3, the figures for the binding result with Flag-IRS-1 [3] and with Flag-IRS-1 [4] were “no binding (condition: with MID-00935 (10 μM))” and “binds”, respectively.
